Series [1] concerns CIIIB1 (Rattus norvegicus). The series is described as follows: EMSA. Conditions: purified native protein. On the technique in general: In EMSA bound probe runs differently from free probe, usually more slowly.
Series [2] concerns AIIAB1 (Rattus norvegicus). Kind of series: EMSA. Conditions: protein in an extract.
Series [3] relates to AID1 (LF-A1) (Rattus norvegicus). Kind of series: EMSA. The settings on record: fraction active in DNA binding; purified native protein; protein details: liver, DNA affinity purified; label: 32P.
The test system of a further series is AID2 (Rattus norvegicus). The series is described as follows: EMSA. The settings on record: fraction active in DNA binding; protein in an extract; protein details: liver, heparin-agarose and Mono Q fraction; label: 32P.
Series [4] deals with CIIIC1 (Rattus norvegicus). The series is described as follows: EMSA. Conditions: protein in an extract.
Series [5] concerns AIIN3 (Rattus norvegicus). The series is described as follows: EMSA. Conditions: methylation interference mapped G contacts; protein in an extract; protein details: liver nuclear extract, heat-labile.
Series [6] has as its system CIIIB2 (Rattus norvegicus). The series is described as follows: EMSA. The settings on record: protein in an extract.
Series [7] relates to CIIIB1 (Rattus norvegicus). The series is described as follows: binding assay. The settings on record: affinity column ligand and photocross-linking; purified native protein; variant of CIIIB(WT) apoCIII -92 to -67.
For the next series, the target named is T1, ARP-1 (UniProt P24468).
T1 sequence (looked up): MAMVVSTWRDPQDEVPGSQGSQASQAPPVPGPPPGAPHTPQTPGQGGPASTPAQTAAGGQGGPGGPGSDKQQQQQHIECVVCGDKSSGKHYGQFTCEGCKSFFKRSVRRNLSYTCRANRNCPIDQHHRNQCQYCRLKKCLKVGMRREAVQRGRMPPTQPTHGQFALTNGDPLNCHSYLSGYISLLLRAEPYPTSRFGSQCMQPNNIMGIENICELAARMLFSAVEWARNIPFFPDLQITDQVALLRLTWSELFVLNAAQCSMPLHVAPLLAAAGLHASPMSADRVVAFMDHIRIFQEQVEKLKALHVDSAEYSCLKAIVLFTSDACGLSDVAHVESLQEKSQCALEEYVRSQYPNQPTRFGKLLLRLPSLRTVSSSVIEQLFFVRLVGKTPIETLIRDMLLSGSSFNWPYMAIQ
Kind of series: EMSA. The settings on record: complexes analysed by methylation interference; protein in a lysate after overexpression; protein details: COS-1, pMT2; label: 32P.

Chains of the proteins cited; added tags and fusions are not shown. Chains listed by the source or under a name are the forms on record and can include a tag or linker.
HNF-4 (Rattus norvegicus), one chain, as listed by the source: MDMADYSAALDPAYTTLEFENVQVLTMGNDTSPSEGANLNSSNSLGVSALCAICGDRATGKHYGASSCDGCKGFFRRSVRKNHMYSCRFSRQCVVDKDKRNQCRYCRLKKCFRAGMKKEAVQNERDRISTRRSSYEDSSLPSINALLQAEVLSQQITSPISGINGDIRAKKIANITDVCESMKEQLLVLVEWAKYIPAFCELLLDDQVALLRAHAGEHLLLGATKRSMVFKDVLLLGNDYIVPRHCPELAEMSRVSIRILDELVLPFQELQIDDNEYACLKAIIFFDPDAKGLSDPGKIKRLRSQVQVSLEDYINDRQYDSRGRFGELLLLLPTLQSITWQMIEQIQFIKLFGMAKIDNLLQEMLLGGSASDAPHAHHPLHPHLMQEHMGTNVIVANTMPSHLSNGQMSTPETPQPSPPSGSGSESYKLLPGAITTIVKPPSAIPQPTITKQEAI

In another series the target is T2, EAR-2 (Homo sapiens) (UniProt P10588).
T2 sequence (looked up, limits assumed): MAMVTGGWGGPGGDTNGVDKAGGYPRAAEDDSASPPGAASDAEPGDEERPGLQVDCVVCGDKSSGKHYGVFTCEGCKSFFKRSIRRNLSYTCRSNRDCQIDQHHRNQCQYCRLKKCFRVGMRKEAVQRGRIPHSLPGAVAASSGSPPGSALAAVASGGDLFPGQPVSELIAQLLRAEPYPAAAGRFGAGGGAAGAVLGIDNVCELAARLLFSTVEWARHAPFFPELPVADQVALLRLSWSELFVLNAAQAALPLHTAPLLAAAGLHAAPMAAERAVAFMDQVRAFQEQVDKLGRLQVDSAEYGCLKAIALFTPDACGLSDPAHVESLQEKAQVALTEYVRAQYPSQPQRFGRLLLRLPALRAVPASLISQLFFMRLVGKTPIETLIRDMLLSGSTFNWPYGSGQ
The series is described as follows: EMSA. The settings on record: complexes analysed by methylation interference; protein in a lysate after overexpression; protein details: COS-1, pMT2; label: 32P.

In the next series the target is T3, EAR-3 (Homo sapiens) (UniProt P10589).
T3 sequence (looked up, limits assumed): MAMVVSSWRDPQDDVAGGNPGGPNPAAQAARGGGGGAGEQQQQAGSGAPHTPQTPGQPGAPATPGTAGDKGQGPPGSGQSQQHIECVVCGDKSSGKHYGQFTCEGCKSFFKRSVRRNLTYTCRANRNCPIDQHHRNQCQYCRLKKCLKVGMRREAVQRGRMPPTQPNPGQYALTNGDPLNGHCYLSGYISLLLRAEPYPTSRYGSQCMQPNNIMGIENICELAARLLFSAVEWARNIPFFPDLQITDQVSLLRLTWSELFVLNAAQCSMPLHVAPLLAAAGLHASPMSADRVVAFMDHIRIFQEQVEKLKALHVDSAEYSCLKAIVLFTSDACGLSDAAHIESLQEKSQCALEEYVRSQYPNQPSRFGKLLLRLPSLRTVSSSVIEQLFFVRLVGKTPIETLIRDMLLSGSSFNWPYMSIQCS
The series is described as follows: EMSA. Conditions: complexes analysed by methylation interference; protein in a lysate after overexpression; protein details: COS-1, pMT2; label: 32P.

Series [8] deals with HNF-4 (Rattus norvegicus). Kind of series: EMSA. Conditions: complexes analysed by methylation interference; protein in a lysate after overexpression; protein details: COS-1, pMT2; label: 32P.

For part of these data: Where cells or extracts were used, other partners may take part. For part of these data: Where a protein sequence is shown, tags need not be part of it. For part of these data: Construct, isoform or probe ends are uncertain for at least one entry. For part of these data: Negatives hold for the conditions tested.

“GCCCCTGCTGACTCAATATTGGCTAATCACT (double strand) [apoA-II element L (-803 to -773)]”: the binding result in series [1] (methylation interference G -794 and -797) is on record as “binds”.

As to “TAAGGTGATCAAATGACC (double strand) [apoA-II element K (-760 to -743)]”, the binding result in series [2] and in series [1] was “binds” in each case.

In the case of “CCCACTGAACCCTTGACCCCTGCC (double strand) [apoA-I element D (-215 to -191)]”, the binding result (in series [3]; in the series on AID2 (Rattus norvegicus)) was “binds” each time.

Consider “CTTCCTGTTGCATTCAAGTCCA (double strand) [apoA-II element D (-276 to -255)]”, for which the binding result in [4] was “binds”.

“GATATCTATTTAACTGATTTCACCC (double strand) [apoA-II element N (-903 to -879)]”: in series [5], the binding result is “binds”.

For the sequence “GGTCAGCAGGTGACGACAGA (double strand) [CIIIBM5]”, the binding result in series [6] (CITED Ogami et al. 1990, variant of CIIIB(WT) apoCIII -92 to -67, cited from earlier work) was “no binding”; in series [7] it was “binds”.

Consider “GGTCAGCAGGTGACCTTTGCCCAGCG (double strand) [CIIIB(WT) apoCIII -92 to -67]”, for which the binding result in the series with ARP-1 is given as “binds”; in series [1] (purification followed with this probe, label: 32P), “binds”; in series [6] (probe binds both CIIIB1 and CIIIB2, label: 32P), “binds”; with EAR-2 (Homo sapiens) it was “binds”; with EAR-3 (Homo sapiens), “binds”; in series [8] it was “binds”.

The values are drawn from US5877009, “Isolated ApoA-I gene regulatory sequence elements” (Trustees of Boston University).
